The campaign covered roughly 410,000 compounds. About 18,000 (4.4%) were called active. Inconclusive means that the source gave no clear call. Such entries were picked first, then a sample of the others. No stated cut-off is given here; in the data, active means activity change below about -60%; inconclusive means no clear call, values can overlap the other calls; inactive means above about -39%.
Assay: qHTS Assay for inhibitors of the human cytomegalovirus (HCMV)
Settings: HFF cells, HCMV-luciferase reporter, 72 h; at 57.5 µM; hits give low values
In short: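 Two compound doses tested in HFFs infected with HCMV-luciferase, MOI 1 PFU/cell, 72 h at 37C. Lysate luminescence read with OneGlo; data normalized against buffer-only and 10uM Salinomycin inhibitor controls.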
On the % scale 0 is the no-effect control and ±100 the full control effect.

Row | SMILES | activity change, negative = inhibition
1 | CCc1cc(C(=O)N2CCCC(CNS(=O)(=O)c3cccs3)C2)n(C)n1 (stereo not given) | inconclusive: -54.1%
2 | O=C(NC1CCCCC1)c1ccc2c(c1)N(Cc1cccc(Cl)c1)C(=O)c1ccccc1S2=O (stereo not given) | inconclusive: -53.5%
3 | COc1ccc(C=CC(=O)c2ccc3cc(OC)c(OC)cc3c2)cc1OC | inactive: 183%
4 | Cc1ccc(CN2CCN(/N=C/c3cc(Br)cc(Br)c3O)CC2)c(C)c1 | inconclusive: -41.3%
5 | NC(=O)CC(NC(=O)Cc1ccc(Br)cc1)c1ccc(NCc2ccc(F)c(F)c2)c([N+](=O)[O-])c1 (stereo not given) | inconclusive: -42.2%
6 | COc1cc(/C=C2\C=CC(=O)O2)cc(OC)c1 | inactive: 21.3%
7 | Cc1cc(C(=O)N/N=C/c2ccncc2)c(C)o1 | inactive: 17.7%
8 | CCc1ccc(NS(=O)(=O)c2cc3[nH]c(=O)c(=O)[nH]c3cc2C)cc1 | inconclusive: -43%
9 | CC(O)C1C=CC=CC(=O)OC2CC3OC4C5OC5(C)C(O)CC4(COC(=O)C(O)C(C)CCO1)C2(C)C31CO1 (stereo not given) | active: -97.9%
10 | c1cc(C2CCN(Cc3nc(-c4ccc5c(c4)OCO5)no3)CC2)ccn1 | inconclusive: -42.8%
11 | Cc1ccc(C)c(S(=O)(=O)c2nnn3c2nc(N2CCCCC2)c2sccc23)c1 | inconclusive: -57.3%
12 | CC1(C)C(=O)Nc2ccccc2N1C(=O)COC(=O)Cc1ccccc1F | inconclusive: -57.9%
13 | Cc1cccn2c(=O)c(C(=O)NC3CC(C)CC(C)(C)C3)c(O)nc12 (stereo not given) | inconclusive: -56.9%
14 | CCOc1ccc(CC(=O)NCc2ccc3c(c2)CCN3C(C)=O)cc1OCC | inactive: 74.2%
15 | CCOc1cc(/C=N/NC(=O)NN(C)c2ncc(C(F)(F)F)cc2Cl)ccc1O | inconclusive: -53%
16 | CC(C)c1ccc(NC(=O)C(Cc2ccccc2)NS(=O)(=O)c2ccc3c(c2)oc(=O)n3C)cc1 (stereo not given) | inactive: -24.1%
17 | CCC(=O)n1nc(-c2ccc(Cl)cc2)nc1NCc1ccccc1 | inconclusive: -45.8%
18 | CCCCCc1nc2c(c(=O)c3ccccc3n2C)c(=O)n1C1CCCCCC1 | inconclusive: -48.6%
19 | O=C(CCNC(=O)c1ccccc1Cl)Nc1ccc(Cl)c(C(F)(F)F)c1 | inconclusive: -51.2%
20 | c1ccc(Oc2cccc(OCCCCN3CCCC3)c2)cc1 | inconclusive: -44.4%
21 | CCc1ccc(NC(=O)c2ccc(F)c(S(=O)(=O)N3CCN(c4cc(C)ccc4C)CC3)c2)cc1 | inconclusive: -58.7%
22 | O=C(COC(=O)c1ncc(Cl)c(Cl)c1Cl)NC(=O)NCc1ccccc1 | inconclusive: -51.7%

Row | SMILES | activity change, negative = inhibition
23 | N#Cc1cnc(NOCc2ccc(Cl)cc2)nc1 | inactive: -35.5%
24 | CC(C)CC(N)c1csc(NC(=O)NCCc2ccccc2)n1 (stereo not given) | inactive: -22.7%
25 | CC(=O)Nc1ccc(NC(=O)CSc2nnc3ccc(-c4ccc(F)cc4)nn23)cc1 | inconclusive: 0%
26 | O=C(c1ccccc1)c1ccccc1NC(=O)C1CCCN1Cc1ccccc1 (stereo not given) | active: -60.3%
27 | O=C(CCNC(=O)c1ccc([N+](=O)[O-])cc1)Nc1cccc(S(=O)(=O)N2CCCCCC2)c1 | inactive: -2.9%
28 | Cc1cccc(OCC2CCCN(Cc3nc(C4CC4)no3)C2)c1 (stereo not given) | inconclusive: -46.4%
29 | COc1ccccc1Nc1nc(-c2ccc3c(c2)NC(=O)CO3)cs1 | active: -63.7%
30 | Cc1ccc(NC(=S)N(C)Cc2cn(C)c3ccccc23)cc1 | inconclusive: -40%
31 | C=CCN1C(=O)/C(=C\c2cc(Br)c(OCc3ccccn3)c(OC)c2)SC1=S | inconclusive: -40.2%
32 | CCCCC1(C(=O)OCC)CC(CSC(=N)N)OC1=O (stereo not given) | inconclusive: -41.5%
33 | COc1ccc(-n2nc(C(=O)NCC(=O)NC3CCCCC3)c3ccccc3c2=O)cc1 | inactive: -2.97%
34 | Cc1noc(C)c1C(=O)Nc1ccc(F)c(F)c1 | inactive: -27.1%
35 | COC(=O)Nc1nc(-c2ccc(F)cc2)c(C)s1 | inconclusive: -59.4%
36 | Cc1ccc(CSc2nncn3c2cc2sccc23)cc1 | inconclusive: -48.3%
37 | CCOc1ccc(NC(=O)Cc2cccc3ccccc23)c([N+](=O)[O-])c1 | active: -73.5%
38 | CN(Cc1ccccc1)S(=O)(=O)c1csc(C(N)=O)c1 | inconclusive: -47.1%
39 | O=C(CCCSc1nc(-c2ccco2)cc(C(F)(F)F)n1)NCc1cccs1 | inactive: -26.8%
40 | Cc1ccc(CNC(=O)CNC(=O)c2ccc(C(C)(C)C)cc2)n1C | inactive: -10.3%
41 | CCOc1ccc(C(=O)Nc2ccc3nc4c(c(Nc5ccccc5OC)c3c2)CCCC4)cc1 | active: -83.9%
42 | CC(C)c1nnc(NC(=O)COc2ccccc2[N+](=O)[O-])s1 | inconclusive: -44.8%
43 | CCC1CCc2sc(C(=O)NC3CCN(Cc4ccccc4)CC3)cc2C1 (stereo not given) | inconclusive: -55%
44 | S=C(NCCSCc1ccc(Cl)cc1Cl)Nc1ccccc1 | active: -62%

Three compounds drawn at random from the list so far:
Row | SMILES | activity change, negative = inhibition
24 | CC(C)CC(N)c1csc(NC(=O)NCCc2ccccc2)n1 (stereo not given) | inactive: -22.7%
40 | Cc1ccc(CNC(=O)CNC(=O)c2ccc(C(C)(C)C)cc2)n1C | inactive: -10.3%
35 | COC(=O)Nc1nc(-c2ccc(F)cc2)c(C)s1 | inconclusive: -59.4%

The listing continues:

Row | SMILES | activity change, negative = inhibition
45 | COc1ccc(C(C(=O)NC2CCCCC2)N(C(=O)Cc2c[nH]c3ccccc23)c2ccccc2)cc1OC (stereo not given) | inconclusive: -45.5%
46 | Cc1cc(Br)ccc1SCC(=O)OCC(=O)NCc1ccco1 | inactive: -11.5%
47 | COc1ccc(C(C(=O)NC2CCCC2)N(C(=O)c2snc(-c3ccc(F)cc3)c2N)c2ccccc2)cc1 (stereo not given) | inactive: 7.35%
48 | O=C(CCn1c(=S)[nH]c2ccccc2c1=O)NCCc1ccc(Cl)cc1 | inconclusive: -44.3%
49 | O=c1c2ccccc2nc(-c2ccccc2Cl)n1-c1ccc(O)cc1 | inconclusive: -41.9%
50 | COc1ccc(C(=O)O)cc1S(=O)(=O)NCc1ccccn1 | inconclusive: -40.7%
51 | O=C(NCCN1CCN(c2cccc(Cl)c2)CC1)C1CCCN(S(=O)(=O)c2cnc[nH]2)C1 (stereo not given) | inconclusive: -40.4%
52 | Cn1nccc1-c1ccc(C(=O)Nc2cccc(NS(C)(=O)=O)c2)c2occc12 | inactive: 225%
53 | N#Cc1ccccc1NC(=O)c1cccn(Cc2ccccc2)c1=O | inconclusive: -45.4%
54 | COc1ccc([N+](=O)[O-])cc1NC(=O)C(C)OC(=O)c1ccccc1C(=O)c1ccc(Cl)cc1 (stereo not given) | active: -65.2%
55 | COc1cccc(NC(=O)Nc2cccs2)c1 | inconclusive: -40.2%
56 | CC(C)(C)n1nnnc1C(c1ccc(F)cc1)N(Cc1ccc(F)cc1)Cc1ccco1 (stereo not given) | inconclusive: -44.1%
57 | O=C(c1ccccc1)c1ccc2nc(N3CCN(c4ccc(F)cc4)CC3)c3nncn3c2c1 | active: -66.7%
58 | O=C(CSc1ccccn1)Nc1nonc1[N+](=O)[O-] | inactive: 53.6%
59 | O=C(COC(=O)/C=C/c1cccc(Br)c1)NC1CCCC1 | active: -100%
60 | COC(=O)CN(c1ccc(C(C)C)cc1)S(=O)(=O)c1c(C)[nH]c(=O)[nH]c1=O | inconclusive: -42.1%
61 | CC(C)(C)NC(=O)N1c2ccccc2Sc2ccccc21 | active: -60.4%
62 | O=C(c1csc(Nc2cccc3ccccc23)n1)N1CCCC1 | inactive: 0%
63 | CCOC(=O)CC(NC(=O)CCc1c(C)nc2cc(-c3ccccc3)nn2c1C)c1ccc(C)cc1 (stereo not given) | inconclusive: -40.5%
64 | COc1ccc(-c2n(-c3ccccn3)c3ccccc3[n+]2-c2ccccn2)cc1 | inconclusive: -41.3%
65 | CCCS(=O)(=O)NC(=O)C1(C)CCN(C(=O)c2ccco2)C1 (stereo not given) | inconclusive: -44.6%
66 | COc1cc(OC)c(C(=O)OCCCOC(=O)c2cc(OC)c(OC)cc2OC)cc1OC | inconclusive: -42%

Row | SMILES | activity change, negative = inhibition
67 | Nc1cccc(C(=O)N/N=C/c2ccsc2)c1 | inactive: -17.2%
68 | Oc1ccc(C[C@H]2CNC(=S)N2CC2CCCN2C[C@H](Cc2ccccc2)N2C[C@H](Cc3ccc(O)cc3)N(CC3CCCCCC3)C2=S)cc1 (stereo not given in full) | active: -62.6%
69 | CC(=O)Nc1ccc(S(=O)(=O)Nc2nc3ccccc3nc2Nc2ccc(O)c(C(=O)O)c2)cc1 | inactive: -25.5%
70 | Cc1cc(CNC(=O)[C@H]2C[C@@H]2[C@H](NP(=O)(c2ccccc2)c2ccccc2)c2ccccc2)nn1C | active: -90.8%
71 | COc1cccc(NC(=O)CN2C(=O)CSc3ccc(S(=O)(=O)N4CCC(C)CC4)cc32)c1 | inconclusive: -49%
72 | NC(=O)C1(N2CCCCC2)CCN(Cc2nc(-c3cccs3)no2)CC1 | inactive: -31.4%
73 | O=C(CCCn1c(=O)[nH]c2ccsc2c1=O)N1CCN(c2ccc(Cl)cc2)CC1 | inconclusive: -44.3%
74 | Cc1ccc(C)c(NC(=O)Cn2c(=O)n(CC(=O)NCCc3ccccc3)c(=O)c3ccccc32)c1 | inactive: -4.95%
75 | COc1ccc(Cn2c(SCc3ccc(C(=O)NCc4cccs4)cc3)nc3ccncc32)cc1 | inconclusive: -40.4%
76 | Cc1ccc(-c2[nH]ncc2C(=O)c2cccc(F)c2)c(O)c1 | active: -74.6%
77 | COc1ccc(C23CC4CC(CC(C4)C2)C3)cc1C(=O)NCCN(C)C | active: -70%
78 | COc1cccc(C(=O)C[n+]2ccccc2/C=N/O)c1 | inactive: -0.675%
79 | O=C(N/C(=C/c1ccco1)C(=O)N1CCCCC1)c1cccs1 | inactive: -5.48%
80 | CCCc1nnc(NC(=O)CCC(=O)N2CCN(Cc3ccc(C)cc3C)CC2)s1 | inconclusive: -45.4%
81 | CC(C)c1ccc(NC(=O)C2C3C=CC4(O3)C2C(=O)N(CCCN2CCCCC2)C4C(=O)NC2CCCCC2)cc1 (stereo not given) | active: -77.2%
82 | Cc1ccc2c(c1)CCCN2N=O | inconclusive: -41.7%
83 | Cc1ccc(C2=[N+]([O-])C3(CCCCC/C3=N\O)N(O)C2(C)C)o1 (stereo not given) | inactive: 11.9%
84 | COc1ccc(NC(=O)c2cc(-c3cc(F)ccc3OCC3CCCO3)n[nH]2)c(C)c1 (stereo not given) | inconclusive: -44%
85 | O=C(Cc1ccccc1)NCc1nc2ccccc2[nH]1 | inconclusive: -44.8%

Structures shown so far with a COOH group, in the order listed:
Row | SMILES | activity change, negative = inhibition
50 | COc1ccc(C(=O)O)cc1S(=O)(=O)NCc1ccccn1 | inconclusive: -40.7%
69 | CC(=O)Nc1ccc(S(=O)(=O)Nc2nc3ccccc3nc2Nc2ccc(O)c(C(=O)O)c2)cc1 | inactive: -25.5%

Reference: PubChem BioAssay AID1259415 (National Center for Advancing Translational Sciences (NCATS), 2018)
